Source: the supplement of paper PMC7661543
Differences between knockout arms are mostly noise.

Test system: HCC-38
Test: relative cell number vs DMSO control (72 h) (% of DMSO); higher = less growth inhibition (more cells)
Protocol: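 QMAP-Seq: a pool of 5 breast cancer cell lines (ZR-75-1, SKBR3, HCC-38, MDA-MB-231, BT-20), each carrying 12 doxycycline-inducible Cas9 sgRNA perturbations (11 knockouts plus non-targeting sgNT), was treated with compounds for 72 h at four 10-fold doses (10 nM-10 uM or 1 nM-1 uM range). Barcodes were amplified and sequenced, and cell number was interpolated from 293T spike-in standard curves. The result is expressed as % of the median of DMSO wells. Two biological replicates.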

CC(C)C[C@H](NC(=O)[C@H](CCc1ccccc1)NC(=O)CN1CCOCC1)C(=O)N[C@@H](Cc1ccccc1)C(=O)N[C@@H](CC(C)C)C(=O)[C@@]1(C)CO1 [Carfilzomib]
Conditions | relative cell number
sgRNA knockout: sgATF3, 1 nM | 76.2
sgRNA knockout: sgATF3, 10 nM | 35.4
sgRNA knockout: sgATF3, 100 nM | 8.84
sgRNA knockout: sgATF3, 1000 nM | 4.58
sgRNA knockout: sgATF4, 1 nM | 79.1
sgRNA knockout: sgATF4, 10 nM | 34.7
sgRNA knockout: sgATF4, 100 nM | 6.77
sgRNA knockout: sgATF4, 1000 nM | 4.9
sgRNA knockout: sgATF6, 1 nM | 84
sgRNA knockout: sgATF6, 10 nM | 32.2
sgRNA knockout: sgATF6, 100 nM | 9.49
sgRNA knockout: sgATF6, 1000 nM | 4.46
sgRNA knockout: sgATG7, 1 nM | 82.1
sgRNA knockout: sgATG7, 10 nM | 30.8
sgRNA knockout: sgATG7, 100 nM | 8.79
sgRNA knockout: sgATG7, 1000 nM | 4.62
sgRNA knockout: sgERN1, 1 nM | 85.4
sgRNA knockout: sgERN1, 10 nM | 34
sgRNA knockout: sgERN1, 100 nM | 9.12
sgRNA knockout: sgERN1, 1000 nM | 5.67
sgRNA knockout: sgHSF1, 1 nM | 73.7
sgRNA knockout: sgHSF1, 10 nM | 25.9
sgRNA knockout: sgHSF1, 100 nM | 11.5
sgRNA knockout: sgHSF1, 1000 nM | 4.48
sgRNA knockout: sgHSF2, 1 nM | 73.1
sgRNA knockout: sgHSF2, 10 nM | 33.3
sgRNA knockout: sgHSF2, 100 nM | 9.42
sgRNA knockout: sgHSF2, 1000 nM | 5.11
sgRNA knockout: sgKEAP1, 1 nM | 85.8
sgRNA knockout: sgKEAP1, 10 nM | 37.8
sgRNA knockout: sgKEAP1, 100 nM | 8.8
sgRNA knockout: sgKEAP1, 1000 nM | 5.5
sgRNA knockout: sgNFE2L2, 1 nM | 79.1
sgRNA knockout: sgNFE2L2, 10 nM | 33.8
sgRNA knockout: sgNFE2L2, 100 nM | 7.23
sgRNA knockout: sgNFE2L2, 1000 nM | 5.28
sgRNA knockout: sgSLC35F2, 1 nM | 73
sgRNA knockout: sgSLC35F2, 10 nM | 33.3
sgRNA knockout: sgSLC35F2, 100 nM | 8.63
sgRNA knockout: sgSLC35F2, 1000 nM | 5.5
sgRNA knockout: sgXBP1, 1 nM | 80.7
sgRNA knockout: sgXBP1, 10 nM | 31.8
sgRNA knockout: sgXBP1, 100 nM | 8.43
sgRNA knockout: sgXBP1, 1000 nM | 5.66
